Data as given in PubChem BioAssay AID1259254 (NCATS, 2017).

Aim: 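Genome-wide screen for genes that prevent DNA re-replication in cancer cells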 (primary screen)
Cells: human HCT116 colorectal cancer cells
Knock-down reagent: single siRNA against human genes
Timing: 3 days
Measured: 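Nuclei stained with Hoechst and imaged; cell-cycle phase assigned by DNA content; G2 share scaled per plate, non-targeting siRNA 0%, GMNN siRNA 100%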
Scale: G2 robust z-score and G2 cells, % of GMNN control: higher = more G2 cells, more excess DNA replication
Active means: 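Active siRNAs have a G2 robust z of 5 or more median absolute deviations over the median, which in these data means about 38% or higher of GMNN control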
In all, the deposit lists about 59,000 reagents; shown is an unselected part. About 1,550 of them (2.6%) were called active. 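G2 share is only a proxy for re-replication; each gene was hit by three separate siRNAs, and active genes were retested.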 Entries without a mark were called inactive. The numbers tell different reagents against one gene apart. Not all columns of the deposit are shown. Not stated in the record: the amount of reagent.

HAPLN3 #1 showed G2 robust z-score 0.962; G2 cells, % of GMNN control 9.74.
With knock-down of HAPLN3 #2, the screen gave G2 robust z-score 0.843; G2 cells, % of GMNN control 8.9.
HAPLN3 #3 showed G2 robust z-score -1.05; G2 cells, % of GMNN control -4.43.
SF3B1 #1 showed G2 robust z-score 4.08; G2 cells, % of GMNN control 31.6.
For SF3B1 #2, the values are G2 robust z-score 7.55 (active); G2 cells, % of GMNN control 56.1.
With knock-down of SF3B1 #3 the results were G2 robust z-score 1.77; G2 cells, % of GMNN control 15.4.
Against EPO #1 the deposit lists G2 robust z-score -1.13; G2 cells, % of GMNN control -4.97.
EPO #2 scored G2 robust z-score -1.14; G2 cells, % of GMNN control -5.08.
For EPO #3, the values are G2 robust z-score 0.354; G2 cells, % of GMNN control 5.46.

Sorted by “G2 robust z-score” (descending): 2 of the entries above.
SF3B1 #2: G2 robust z-score = 7.55 (active); G2 cells, % of GMNN control = 56.1
SF3B1 #1: G2 robust z-score = 4.08; G2 cells, % of GMNN control = 31.6

The list goes on:
Depletion of PRSS46P #1 came out at: G2 robust z-score 0.731; G2 cells, % of GMNN control 8.11.
Depletion of PRSS46P #2 resulted in: G2 robust z-score -1.2; G2 cells, % of GMNN control -5.47.
PRSS46P #3 gave G2 robust z-score -1.06; G2 cells, % of GMNN control -4.5.
TRAPPC10 #1 scored G2 robust z-score -0.199; G2 cells, % of GMNN control 1.57.
For TRAPPC10 #2, the values are G2 robust z-score -0.839; G2 cells, % of GMNN control -2.94.
TRAPPC10 #3 showed G2 robust z-score 1.37; G2 cells, % of GMNN control 12.6.
RPS26P40 #1 scored G2 robust z-score 1.33; G2 cells, % of GMNN control 12.3.
RPS26P40 #2 gave G2 robust z-score 7.45 (active); G2 cells, % of GMNN control 55.4.
For RPS26P40 #3 the deposit lists G2 robust z-score 0.253; G2 cells, % of GMNN control 4.75.
